Positions count from the first letter of the chain named. No constants are given. Whether binding was seen depends on the method and setting. In cells and extracts the contact can be indirect. Some results given as binding are weak or reduced against the parent protein; the word gives no strength. Where a sequence is shown, tags or fusion partners need not be part of it.
Key:
[1] = biological target: T1, T7-DHX34 p.Asp638Asn (human) (UniProt Q14147); assay: co-IP; HEK293T cells co-transfected with T7-DHX34 (wild type or variant) and FLAG-UPF1; anti-T7 immunoprecipitates probed for UPF1
T1 sequence: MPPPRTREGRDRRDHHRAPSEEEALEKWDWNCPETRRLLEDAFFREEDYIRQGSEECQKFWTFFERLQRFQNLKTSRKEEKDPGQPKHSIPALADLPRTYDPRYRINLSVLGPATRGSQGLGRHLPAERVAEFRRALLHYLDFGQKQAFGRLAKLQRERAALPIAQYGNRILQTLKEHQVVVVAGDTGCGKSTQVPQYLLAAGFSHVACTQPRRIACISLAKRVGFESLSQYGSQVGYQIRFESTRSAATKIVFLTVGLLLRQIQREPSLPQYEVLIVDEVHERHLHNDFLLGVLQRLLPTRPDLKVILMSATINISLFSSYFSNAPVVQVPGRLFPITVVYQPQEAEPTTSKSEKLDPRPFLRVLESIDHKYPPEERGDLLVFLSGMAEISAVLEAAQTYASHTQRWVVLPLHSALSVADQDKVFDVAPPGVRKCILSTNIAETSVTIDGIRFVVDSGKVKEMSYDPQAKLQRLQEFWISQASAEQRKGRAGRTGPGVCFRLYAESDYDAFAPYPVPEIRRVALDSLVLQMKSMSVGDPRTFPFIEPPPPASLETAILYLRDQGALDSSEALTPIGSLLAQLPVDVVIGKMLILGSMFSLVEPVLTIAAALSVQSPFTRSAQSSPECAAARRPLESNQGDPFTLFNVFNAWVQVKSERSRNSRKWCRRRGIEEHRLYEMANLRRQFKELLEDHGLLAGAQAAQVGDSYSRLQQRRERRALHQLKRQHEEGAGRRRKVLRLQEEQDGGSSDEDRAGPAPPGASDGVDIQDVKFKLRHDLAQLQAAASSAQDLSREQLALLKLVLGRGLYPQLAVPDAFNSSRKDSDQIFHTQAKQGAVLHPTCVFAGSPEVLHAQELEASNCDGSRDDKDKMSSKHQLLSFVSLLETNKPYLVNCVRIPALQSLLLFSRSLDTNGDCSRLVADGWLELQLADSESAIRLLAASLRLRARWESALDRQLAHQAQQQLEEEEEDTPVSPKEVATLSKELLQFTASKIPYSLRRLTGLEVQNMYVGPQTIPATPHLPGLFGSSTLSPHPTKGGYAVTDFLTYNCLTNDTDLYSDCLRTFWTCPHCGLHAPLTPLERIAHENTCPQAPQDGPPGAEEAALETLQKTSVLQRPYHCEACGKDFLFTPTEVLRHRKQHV

[2] = biological target: T2, T7-DHX34 wild-type (human) (UniProt Q14147); assay: as above
T2 sequence: T1 sequence with N638D

binding [1]: binds
binding [2]: binds
B1: FLAG-UPF1 (pcIneo-FLAG-UPF1) (protein, UniProt Q92900 1-1129)
chain: MSVEAYGPSSQTLTFLDTEEAELLGADTQGSEFEFTDFTLPSQTQTPPGGPGGPGGGGAGGPGGAGAGAAAGQLDAQVGPEGILQNGAVDDSVAKTSQLLAELNFEEDEEDTYYTKDLPIHACSYCGIHDPACVVYCNTSKKWFCNGRGNTSGSHIVNHLVRAKCKEVTLHKDGPLGETVLECYNCGCRNVFLLGFIPAKADSVVVLLCRQPCASQSSLKDINWDSSQWQPLIQDRCFLSWLVKIPSEQEQLRARQITAQQINKLEELWKENPSATLEDLEKPGVDEEPQHVLLRYEDAYQYQNIFGPLVKLEADYDKKLKESQTQDNITVRWDLGLNKKRIAYFTLPKTDSGNEDLVIIWLRDMRLMQGDEICLRYKGDLAPLWKGIGHVIKVPDNYGDEIAIELRSSVGAPVEVTHNFQVDFVWKSTSFDRMQSALKTFAVDETSVSGYIYHKLLGHEVEDVIIKCQLPKRFTAQGLPDLNHSQVYAVKTVLQRPLSLIQGPPGTGKTVTSATIVYHLARQGNGPVLVCAPSNIAVDQLTEKIHQTGLKVVRLCAKSREAIDSPVSFLALHNQIRNMDSMPELQKLQQLKDETGELSSADEKRYRALKRTAERELLMNADVICCTCVGAGDPRLAKMQFRSILIDESTQATEPECMVPVVLGAKQLILVGDHCQLGPVVMCKKAAKAGLSQSLFERLVVLGIRPIRLQVQYRMHPALSAFPSNIFYEGSLQNGVTAADRVKKGFDFQWPQPDKPMFFYVTQGQEEIASSGTSYLNRTEAANVEKITTKLLKAGAKPDQIGIITPYEGQRSYLVQYMQFSGSLHTKLYQEVEIASVDAFQGREKDFIILSCVRANEHQGIGFLNDPRRLNVALTRARYGVIIVGNPKALSKQPLWNHLLNYYKEQKVLVEGPLNNLRESLMQFSKPRKLVNTINPGARFMTTAMYDAREAIIPGSVYDRSSQGRPSSMYFQTHDQIGMISAGPSHVAAMNIPIPFNLVMPPMPPPGYFGQANGPAAGRGTPKGKTGRGGRQKNRFGLPGPSQTNLPNSQASQDVASQPFSQGALTQGYISMSQPSQMSQPGLSQPELSQDSYLGDEFKSQIDVALSQDSTYQGERAYQHGGVTGLSQY
